# Source: ChEMBL document CHEMBL4177670, “Potential antimicrobial agents from triazole-functionalized 2H-benzo[b][1,4]oxazin-3(4H)-ones” (2017)
# Tested on: Pseudomonas aeruginosa
# Experiment: microbe, parasite or virus in culture
# Settings: MTCC 2453, 24 h
structure (smiles),measurement,value
O=C(O)c1cn(C2CC2)c2cc(N3CCNCC3)c(F)cc2c1=O [CIPROFLOXACIN],MIC,0.9 µg/mL
